In the supplement of paper PMC9015667:
Structures can show the parent of a compound that is named as a salt. This is one part of the list. Most values come without repeats; read them as rough.

How the values were obtained:
Experiment in all cases: reduction in cell viability relative to untreated/vehicle; higher = more growth inhibition
Details in all cases: 200 nM; 72 h
M229P = tested on: M229P (parental melanoma line)
M229R = tested on: M229R (matched melanoma line resistant to BRAF inhibitors)
M238P = tested on: M238P (parental melanoma line)
M238R = tested on: M238R (matched melanoma line resistant to BRAF inhibitors)
M249P = tested on: M249P (parental melanoma line)
M249R = tested on: M249R (matched melanoma line resistant to BRAF inhibitors)
UACC62P = tested on: UACC62P (parental melanoma line)
UACC62R = tested on: UACC62R (matched melanoma line resistant to BRAF inhibitors)

SMILES | reduction in cell viability (M229P) [%] | reduction in cell viability (M229R) [%] | reduction in cell viability (M238P) [%] | reduction in cell viability (M238R) [%] | reduction in cell viability (M249P) [%] | reduction in cell viability (M249R) [%] | reduction in cell viability (UACC62P) [%] | reduction in cell viability (UACC62R) [%]
OCCN1CCN(CCCN2c3ccccc3Sc3ccc(C(F)(F)F)cc32)CC1 [Fluphenazine hydrochloride] | < 0 | < 0 | < 0 | < 0 | < 0 | < 0 | < 0 | < 0
COC(=O)C1=C(C)NC(C)=C(C(=O)OC(C)C)C1c1cccc2nonc12 (stereo not given) [Isradipine] | < 0 | < 0 | < 0 | < 0 | < 0 | < 0 | < 0 | < 0
CC1(C)[C@@H](O)CC[C@]2(C)[C@H]3C(=O)C=C4[C@@H]5C[C@@](C)(C(=O)O)CC[C@]5(C)CC[C@@]4(C)[C@]3(C)CC[C@@H]12 [Enoxolone] | < 0 | < 0 | < 0 | < 0 | < 0 | < 0 | 5.86 | < 0
COc1cc2ncnc(Nc3ccc(F)c(Cl)c3)c2cc1OCCCN1CCOCC1 [Gefitinib] | < 0 | < 0 | < 0 | < 0 | < 0 | < 0 | 6.14 | < 0
CC(C)NC[C@@H](C(=O)N1CCN(c2ncnc3c2[C@H](C)C[C@H]3O)CC1)c1ccc(Cl)cc1 | < 0 | 31.1 | < 0 | < 0 | < 0 | < 0 | < 0 | < 0
O=C(c1ccc(C(=O)N2CCC(N3CCCC3)CC2)c(Nc2ccccc2)c1)N1CCC(N2CCCC2)CC1 | < 0 | < 0 | < 0 | < 0 | < 0 | < 0 | < 0 | < 0
Cc1nccn1CC1CCc2c(c3ccccc3n2C)C1=O (stereo not given) [Ondansetron] | < 0 | < 0 | < 0 | < 0 | < 0 | < 0 | < 0 | < 0
O=c1[nH]c(=O)n([C@H]2C[C@H](O)[C@@H](CO)O2)cc1C(F)(F)F [Trifluridine] | < 0 | < 0 | < 0 | < 0 | < 0 | < 0 | < 0 | < 0
N=C(N)NC(=N)N1CCOCC1 [Moroxydine] | < 0 | < 0 | < 0 | < 0 | < 0 | < 0 | 8.04 | < 0
Clc1ccc2c(N3CCN(CCCN4CCN(c5ccnc6cc(Cl)ccc56)CC4)CC3)ccnc2c1 [Piperaquine] | < 0 | < 0 | < 0 | < 0 | < 0 | < 0 | < 0 | < 0
Cc1ccccc1C(=O)Nc1ccc(C(=O)N2CCCC(O)c3cc(Cl)ccc32)c(C)c1 (stereo not given) [Tolvaptan] | < 0 | < 0 | < 0 | < 0 | < 0 | < 0 | 5.82 | < 0
N#Cc1c(O)c2c(-c3ccc(-c4ccccc4O)cc3)csc2[nH]c1=O | < 0 | < 0 | < 0 | < 0 | < 0 | < 0 | < 0 | < 0
COc1ccc([C@@H]2CC(=O)c3c(O)cc(O)cc3O2)cc1O [Hesperetin] | < 0 | < 0 | < 0 | < 0 | < 0 | < 0 | 6.47 | < 0
Cc1cccc(-c2[nH]ncc2-c2ccc3ncccc3n2)n1 | < 0 | < 0 | < 0 | < 0 | < 0 | < 0 | < 0 | < 0
COC(=O)C1=CO[C@@H](O)[C@@H]2C(CO)=CC[C@H]12 [Genipin] | < 0 | < 0 | < 0 | < 0 | < 0 | < 0 | < 0 | < 0
NC(=O)c1cccnc1 [Niacinamide] | < 0 | < 0 | < 0 | < 0 | < 0 | < 0 | < 0 | < 0
O=C1Nc2ccccc2/C1=C1/Nc2ccccc2C1=O [Indirubin] | < 0 | < 0 | < 0 | < 0 | < 0 | < 0 | < 0 | < 0
C[C@H]1[C@H](NC(=O)/C(=N\OC(C)(C)C(=O)O)c2csc(N)n2)C(=O)N1S(=O)(=O)O [Aztreonam] | < 0 | < 0 | < 0 | < 0 | < 0 | < 0 | < 0 | < 0
Cc1ccc2c(=O)c3cccc(CC(=O)O)c3oc2c1C [Vadimezan] | < 0 | < 0 | < 0 | < 0 | < 0 | < 0 | < 0 | < 0
NNC(=O)c1ccncc1 [Isoniazid] | < 0 | < 0 | < 0 | < 0 | < 0 | < 0 | < 0 | < 0

Of the compounds above, these contain an NH in an aromatic ring:
SMILES | reduction in cell viability (M229P) [%] | reduction in cell viability (M229R) [%] | reduction in cell viability (M238P) [%] | reduction in cell viability (M238R) [%] | reduction in cell viability (M249P) [%] | reduction in cell viability (M249R) [%] | reduction in cell viability (UACC62P) [%] | reduction in cell viability (UACC62R) [%]
O=c1[nH]c(=O)n([C@H]2C[C@H](O)[C@@H](CO)O2)cc1C(F)(F)F [Trifluridine] | < 0 | < 0 | < 0 | < 0 | < 0 | < 0 | < 0 | < 0
N#Cc1c(O)c2c(-c3ccc(-c4ccccc4O)cc3)csc2[nH]c1=O | < 0 | < 0 | < 0 | < 0 | < 0 | < 0 | < 0 | < 0
Cc1cccc(-c2[nH]ncc2-c2ccc3ncccc3n2)n1 | < 0 | < 0 | < 0 | < 0 | < 0 | < 0 | < 0 | < 0

Further results:

SMILES | reduction in cell viability (M229P) [%] | reduction in cell viability (M229R) [%] | reduction in cell viability (M238P) [%] | reduction in cell viability (M238R) [%] | reduction in cell viability (M249P) [%] | reduction in cell viability (M249R) [%] | reduction in cell viability (UACC62P) [%] | reduction in cell viability (UACC62R) [%]
Cn1cncc1[C@@](N)(c1ccc(Cl)cc1)c1ccc2c(c1)c(-c1cccc(Cl)c1)cc(=O)n2C [Tipifarnib] | < 0 | < 0 | < 0 | 2.05 | < 0 | 3.84 | < 0 | 21.1
COc1cc(Oc2ccnc3cc(OC)c(OC)cc23)ccc1NC(=O)NC(C)c1nccs1 (stereo not given) | < 0 | < 0 | < 0 | < 0 | < 0 | < 0 | < 0 | < 0
CC1=C(/C=C/C(C)=C/C=C/C(C)=C\C(=O)O)C(C)(C)CCC1 [Isotretinoin] | < 0 | < 0 | < 0 | < 0 | < 0 | < 0 | < 0 | < 0
O=c1[nH]c(=O)n([C@H]2C[C@H](O)[C@@H](CO)O2)cc1/C=C/Br [Brivudine] | < 0 | < 0 | < 0 | < 0 | < 0 | < 0 | < 0 | < 0
CCC(C)N(C)C(=O)c1cc2ccccc2c(-c2ccccc2Cl)n1 (stereo not given) | < 0 | < 0 | < 0 | < 0 | < 0 | < 0 | < 0 | < 0
Nc1ccc(S(N)(=O)=O)cc1 [Sulfanilamide] | < 0 | < 0 | < 0 | < 0 | < 0 | < 0 | < 0 | < 0
CC1(C)O[C@@H]2C[C@H]3[C@@H]4CCC5=CC(=O)C=C[C@]5(C)[C@@]4(F)[C@@H](O)C[C@]3(C)[C@]2(C(=O)CO)O1 [Triamcinolone acetonide] | < 0 | < 0 | < 0 | < 0 | < 0 | < 0 | < 0 | < 0
CCCCCN(CCC12CC3CC(CC(C3)C1)C2)C(=O)NCCCc1ccncc1 | < 0 | < 0 | < 0 | < 0 | < 0 | < 0 | < 0 | < 0
CCC(NC(C)C)C(O)c1ccc(O)c2[nH]c(=O)ccc12 (stereo not given) [Procaterol] | < 0 | < 0 | < 0 | < 0 | < 0 | 2.62 | < 0 | < 0
CC1C(=O)OC2C(O)C34C5CC(C(C)(C)C)C36C(OC(=O)C6O)OC4(C(=O)O5)C12O (stereo not given) [Ginkgolide B] | < 0 | < 0 | < 0 | < 0 | < 0 | < 0 | < 0 | < 0
CCN(CC)CCNC(=O)c1ccc2nc(-c3ccccc3)c(-c3ccc(CN4CCC(n5c(=O)[nH]c6ccccc65)CC4)cc3)nc2c1 [Merck-22-6] | < 0 | < 0 | < 0 | < 0 | < 0 | < 0 | < 0 | < 0
C/C=C/C/C=C/CCC(=O)[C@H]1O[C@H]1C(N)=O [Cerulenin] | < 0 | < 0 | < 0 | < 0 | < 0 | < 0 | < 0 | < 0
CC(C)(O)[C@H]1CC[C@@](C)([C@H]2[C@@H](O)C[C@@]3(C)[C@@H]4C[C@H](O[C@@H]5O[C@H](CO)[C@@H](O)[C@H](O)[C@H]5O)[C@H]5C(C)(C)[C@@H](O[C@@H]6OC[C@@H](O)[C@H](O)[C@H]6O)CC[C@@]56C[C@@]46CC[C@]23C)O1 [Astragaloside A] | < 0 | < 0 | < 0 | < 0 | < 0 | < 0 | < 0 | < 0
CCOC(=O)c1ncn2c1CN(C)C(=O)c1cc(F)ccc1-2 [Flumazenil] | < 0 | < 0 | < 0 | < 0 | < 0 | 8.46 | 4.29 | < 0
Cc1cnc(Nc2ccc(OCCN3CCCC3)cc2)nc1Nc1cccc(S(=O)(=O)NC(C)(C)C)c1 | < 0 | < 0 | 20.6 | < 0 | < 0 | < 0 | < 0 | < 0
CN[C@@H](C)C(=O)N[C@H]1CN(C(=O)CC(C)C)CC[C@H]2CC[C@@H](C(=O)NC(c3ccccc3)c3ccccc3)N2C1=O | < 0 | < 0 | 8.2 | < 0 | < 0 | < 0 | 2.71 | 19.9
Cc1ccc(C(=O)Nc2ccc(CN3CCN(C)CC3)c(C(F)(F)F)c2)cc1C#Cc1cnc2cccnn12 | 29.7 | 0.24 | 56.1 | 7.12 | 19.2 | 36.9 | 36.9 | < 0
CN1CCN2c3ccccc3Cc3ccccc3C2C1 (stereo not given) [Mianserin] | < 0 | < 0 | < 0 | < 0 | < 0 | < 0 | < 0 | < 0
CO[C@H]1C[C@@H]2CC[C@@H](C)[C@@](O)(O2)C(=O)C(=O)N2CCCC[C@H]2C(=O)O[C@H]([C@H](C)C[C@@H]2CC[C@@H](O)[C@H](OC)C2)CC(=O)[C@H](C)/C=C(\C)[C@@H](O)[C@@H](OC)C(=O)[C@H](C)C[C@H](C)/C=C/C=C/C=C/1C [Rapamycin] | < 0 | 12.1 | 11.1 | < 0 | 7.22 | 7.49 | 18.3 | < 0
COc1cccc2c1C(=O)c1c(O)c3c(c(O)c1C2=O)C[C@@](O)(C(=O)CO)C[C@@H]3O[C@H]1C[C@H](N)[C@@H](O)[C@H](C)O1 [Epirubicin hydrochloride] | 7.87 | 25.9 | 64.3 | 35.4 | 46 | 50.7 | 23.2 | 45.4
